PubChem BioAssay AID504774 – Drosophila RNAi Screening Center – 2011

Assay: 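Knock-downs that shift viability of MMS-exposed cells relative to untreated ones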 (primary screen)
Cell system: Drosophila Kc167 cells
Reagent: long dsRNA against Drosophila genes, about 0.25 µg dsRNA per well
Time to read-out: about 6 days: 3 days knock-down, then 3 days with or without MMS
Conditions: methyl methanesulphonate 0.004% (w/v) for 3 days after knock-down
Measured: 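Viability in wells given MMS, read as ATP luminescence, normalised by quantiles plate by plate and averaged across replicates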
Direction: mean viability with MMS and viability with MMS: higher = more surviving cells after MMS
The deposit covers about 23,000 reagents; below is an unselected part of those with a known target gene and a result. 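Values are quantile-normalised luminescence on an arbitrary scale; higher means more cells surviving MMS.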 Not all columns of the deposit are shown.

no.	gene knocked down	amplicon	mean viability with MMS	viability with MMS, replicate 1
1	CG34125	DRSC00850	3.30e6	3.83e6
2	CG32444	DRSC11677	3.61e6	4.13e6
3	CG42758	DRSC10021	3.64e6	4.15e6
4	Qtzl	DRSC01221	3.40e6	3.80e6
5	Grik	DRSC15846	3.56e6	4.05e6
6	Grik	DRSC15847	3.39e6	3.81e6
7	hpRNA:CR32207	DRSC09616	3.49e6	3.98e6
8	CG13950	DRSC00368	3.50e6	4.01e6
9	Zip89B	DRSC16128	3.45e6	3.98e6
10	Socs44A	DRSC06828	3.57e6	4.07e6
11	CG5246	DRSC15751	3.59e6	4.12e6
12	Atu	DRSC12123	3.65e6	4.13e6
13	CheA87a	DRSC14839	3.73e6	4.26e6
14	mmm	DRSC10208	3.52e6	4.12e6
15	CG14634	DRSC17944	3.74e6	4.24e6
16	Naxd	DRSC09722	3.56e6	4.14e6
17	Rpn12R	DRSC09842	3.42e6	3.83e6
18	CG5539	DRSC04510	3.49e6	3.82e6
19	Mpcp2	DRSC11226	3.49e6	3.96e6
20	Stat92E	DRSC16870	3.57e6	4.06e6
21	Scp2	DRSC13166	3.64e6	4.07e6
22	Scp2	DRSC16854	3.54e6	4.06e6
23	RpS2	DRSC03614	2.76e6	3.10e6
24	eIF4H1	DRSC20276	3.47e6	4.00e6
25	CG32024	DRSC21883	3.49e6	4.03e6
26	HDAC3	DRSC12352	3.54e6	4.15e6
27	mRF1	DRSC02880	3.46e6	3.85e6
28	CG15376 (retired record)	DRSC18046	3.58e6	3.98e6

Part of the list above, limited to “mean viability with MMS”.
CG5539 [DRSC04510] = 3.49e6
Mpcp2 [DRSC11226] = 3.49e6
Stat92E [DRSC16870] = 3.57e6
Scp2 [DRSC13166] = 3.64e6
